# Source: patent US8198352B2, “High purity monoalkyltin compounds and uses thereof” (Arkema France, priority 2008, dated 2012)
# Assay: Example B: colorhold of PVC/copolymer film calendering formulation on Collin two-roll mill at 190° C.
# Conditions: two-roll mill 190° C., Stab 2 and 3 at 1.5 phr, Stab 1 at 1.7 phr (equal tin content)
compound,measurement,setting,value
CCCCCCC[CH2][Sn]([S]CC(=O)OCC(CC)CCCC)([S]CC(=O)OCC(CC)CCCC)[S]CC(=O)OCC(CC)CCCC (stereo not drawn) [Stab 1],b* value in Hunter L*a*b* scale,t 2 min,7.5
same,b* value in Hunter L*a*b* scale,t 3 min,8.1
same,b* value in Hunter L*a*b* scale,t 4 min,8.8
same,b* value in Hunter L*a*b* scale,t 5 min,8.6
same,b* value in Hunter L*a*b* scale,t 6 min,9.3
same,b* value in Hunter L*a*b* scale,t 7 min,8.9
same,b* value in Hunter L*a*b* scale,t 8 min,10
same,b* value in Hunter L*a*b* scale,t 9 min,10
same,b* value in Hunter L*a*b* scale,t 10 min,11
same,b* value in Hunter L*a*b* scale,t 12 min,13
same,b* value in Hunter L*a*b* scale,t 15 min,17
same,b* value in Hunter L*a*b* scale,t 20 min,40
